Reference: publication PMC9106718
Results are given in words; binding and its absence hold for the method and conditions named. Binding seen in cells or lysates may run through a third protein. Some binding calls cover weakened binding; strength is not graded here.

Protein sequences, listed by entry. Tags and fused reporters are not part of them.
UniProt O15260: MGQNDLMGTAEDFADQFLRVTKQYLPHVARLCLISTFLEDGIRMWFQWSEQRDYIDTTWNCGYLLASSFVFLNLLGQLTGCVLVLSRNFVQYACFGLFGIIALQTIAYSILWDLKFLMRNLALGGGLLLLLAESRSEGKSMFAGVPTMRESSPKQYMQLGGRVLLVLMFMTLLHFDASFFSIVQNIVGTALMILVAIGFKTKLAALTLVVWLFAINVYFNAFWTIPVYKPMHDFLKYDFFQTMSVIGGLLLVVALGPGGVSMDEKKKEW

Molecular target: human Surf4 with an N-terminal GFP tag (human) (UniProt O15260)
Assay: co-IP; INS-1 832/13 cells expressing GFP-hSurf4; lysate incubated with Dynabeads Protein G coupled with anti-GFP (3E6) or normal mouse IgG 60 min at room temperature; blotted with anti-Sec12 and anti-GFP

B1: endogenous Sec12 (protein, UniProt Q9WTV0 1-417)
chain: MGRRRGVELYRAPFPLYALRIDPKTGLLIAAGGGGAAKTGIKNGVHFLQLEQISGCLSASLLHSHDTETRATMNLALAGDILAAGQDAQCQLLRFQIHQQKGSKAEKSGSKEQGPRQRKGAAPAEKKSGAEVHPEGVELKVKNLEAVQTDFSTEPLQKVVCFNHDNTLLATGGSDGHVRVWKVPSLEKVLEFKAHEGEIGDLALGPDGKLVTVGWDFKASVWQKDQLVTQLQWQENGPTSSNTPYRYQACRFGQVPDQPGGLRLFTVQIPHKRLRQPPPCYLTAWDSSTFLPLQTRSCGHEVISCLTVSESGTFLGLGTVTGSVAIYIAFSLQRLYYVKEAHGIVVTDVTFLPEKGCGPKLLGPHETALFSVAVDSRCQLHLLPSRRSVPVWLLLLLCVGLIIVTILLLQSAFPGFL
binding: binds
